Experimental data taken from PMC5037378.
No constants are given. Whether binding was seen depends on the method and setting. In cells and extracts the contact can be indirect. A yes stands for co-enrichment or nearness to the bait. Other partners may have been found.

Amino acid sequences for entries named in this document (tags omitted).
UniProt Q4FZT9: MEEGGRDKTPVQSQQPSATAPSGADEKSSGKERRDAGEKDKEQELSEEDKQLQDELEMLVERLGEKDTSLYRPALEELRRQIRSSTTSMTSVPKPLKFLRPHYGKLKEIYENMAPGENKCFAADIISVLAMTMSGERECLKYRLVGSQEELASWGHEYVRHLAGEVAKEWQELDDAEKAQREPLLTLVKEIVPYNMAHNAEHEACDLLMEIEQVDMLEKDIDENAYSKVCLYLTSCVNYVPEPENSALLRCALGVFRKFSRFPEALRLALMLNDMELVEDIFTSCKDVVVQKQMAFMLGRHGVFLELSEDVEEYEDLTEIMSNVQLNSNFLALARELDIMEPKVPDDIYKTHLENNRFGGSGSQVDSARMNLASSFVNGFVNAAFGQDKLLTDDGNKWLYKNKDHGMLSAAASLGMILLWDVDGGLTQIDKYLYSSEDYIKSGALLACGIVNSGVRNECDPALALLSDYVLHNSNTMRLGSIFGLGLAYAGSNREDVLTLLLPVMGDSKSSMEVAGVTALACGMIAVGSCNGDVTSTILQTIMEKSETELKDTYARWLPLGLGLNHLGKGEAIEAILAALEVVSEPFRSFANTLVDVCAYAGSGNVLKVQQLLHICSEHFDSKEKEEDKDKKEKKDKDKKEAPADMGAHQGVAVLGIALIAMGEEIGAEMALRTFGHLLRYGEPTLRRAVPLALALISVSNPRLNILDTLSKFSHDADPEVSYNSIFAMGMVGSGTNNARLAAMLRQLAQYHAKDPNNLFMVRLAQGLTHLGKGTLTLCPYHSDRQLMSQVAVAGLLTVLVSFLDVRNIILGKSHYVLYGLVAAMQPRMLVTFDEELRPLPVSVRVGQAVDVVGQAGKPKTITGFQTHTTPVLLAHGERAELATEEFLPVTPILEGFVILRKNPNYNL
UniProt P18484: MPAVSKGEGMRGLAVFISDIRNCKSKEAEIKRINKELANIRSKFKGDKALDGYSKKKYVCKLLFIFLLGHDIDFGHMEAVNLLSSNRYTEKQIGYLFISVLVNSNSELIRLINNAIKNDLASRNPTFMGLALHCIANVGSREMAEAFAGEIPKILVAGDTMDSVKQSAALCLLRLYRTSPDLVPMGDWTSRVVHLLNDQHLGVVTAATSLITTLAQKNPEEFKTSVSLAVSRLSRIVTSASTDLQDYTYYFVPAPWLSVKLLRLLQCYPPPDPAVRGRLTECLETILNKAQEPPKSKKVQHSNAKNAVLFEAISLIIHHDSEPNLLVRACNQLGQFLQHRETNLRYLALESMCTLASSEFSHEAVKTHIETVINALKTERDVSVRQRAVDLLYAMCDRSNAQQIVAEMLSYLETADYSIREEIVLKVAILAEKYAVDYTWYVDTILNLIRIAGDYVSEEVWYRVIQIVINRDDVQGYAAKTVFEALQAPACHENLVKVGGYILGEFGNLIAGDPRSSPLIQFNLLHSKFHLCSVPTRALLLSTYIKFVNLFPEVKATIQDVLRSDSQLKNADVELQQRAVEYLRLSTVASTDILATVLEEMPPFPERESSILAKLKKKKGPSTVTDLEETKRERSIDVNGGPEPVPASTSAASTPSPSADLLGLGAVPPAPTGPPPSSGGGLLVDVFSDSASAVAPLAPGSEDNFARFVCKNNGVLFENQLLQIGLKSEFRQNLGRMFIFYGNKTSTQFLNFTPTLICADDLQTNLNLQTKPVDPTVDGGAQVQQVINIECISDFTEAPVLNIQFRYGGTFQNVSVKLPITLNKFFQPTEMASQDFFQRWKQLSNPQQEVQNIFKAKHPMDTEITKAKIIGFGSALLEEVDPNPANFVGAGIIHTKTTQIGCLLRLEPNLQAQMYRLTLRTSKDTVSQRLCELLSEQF
UniProt P11442: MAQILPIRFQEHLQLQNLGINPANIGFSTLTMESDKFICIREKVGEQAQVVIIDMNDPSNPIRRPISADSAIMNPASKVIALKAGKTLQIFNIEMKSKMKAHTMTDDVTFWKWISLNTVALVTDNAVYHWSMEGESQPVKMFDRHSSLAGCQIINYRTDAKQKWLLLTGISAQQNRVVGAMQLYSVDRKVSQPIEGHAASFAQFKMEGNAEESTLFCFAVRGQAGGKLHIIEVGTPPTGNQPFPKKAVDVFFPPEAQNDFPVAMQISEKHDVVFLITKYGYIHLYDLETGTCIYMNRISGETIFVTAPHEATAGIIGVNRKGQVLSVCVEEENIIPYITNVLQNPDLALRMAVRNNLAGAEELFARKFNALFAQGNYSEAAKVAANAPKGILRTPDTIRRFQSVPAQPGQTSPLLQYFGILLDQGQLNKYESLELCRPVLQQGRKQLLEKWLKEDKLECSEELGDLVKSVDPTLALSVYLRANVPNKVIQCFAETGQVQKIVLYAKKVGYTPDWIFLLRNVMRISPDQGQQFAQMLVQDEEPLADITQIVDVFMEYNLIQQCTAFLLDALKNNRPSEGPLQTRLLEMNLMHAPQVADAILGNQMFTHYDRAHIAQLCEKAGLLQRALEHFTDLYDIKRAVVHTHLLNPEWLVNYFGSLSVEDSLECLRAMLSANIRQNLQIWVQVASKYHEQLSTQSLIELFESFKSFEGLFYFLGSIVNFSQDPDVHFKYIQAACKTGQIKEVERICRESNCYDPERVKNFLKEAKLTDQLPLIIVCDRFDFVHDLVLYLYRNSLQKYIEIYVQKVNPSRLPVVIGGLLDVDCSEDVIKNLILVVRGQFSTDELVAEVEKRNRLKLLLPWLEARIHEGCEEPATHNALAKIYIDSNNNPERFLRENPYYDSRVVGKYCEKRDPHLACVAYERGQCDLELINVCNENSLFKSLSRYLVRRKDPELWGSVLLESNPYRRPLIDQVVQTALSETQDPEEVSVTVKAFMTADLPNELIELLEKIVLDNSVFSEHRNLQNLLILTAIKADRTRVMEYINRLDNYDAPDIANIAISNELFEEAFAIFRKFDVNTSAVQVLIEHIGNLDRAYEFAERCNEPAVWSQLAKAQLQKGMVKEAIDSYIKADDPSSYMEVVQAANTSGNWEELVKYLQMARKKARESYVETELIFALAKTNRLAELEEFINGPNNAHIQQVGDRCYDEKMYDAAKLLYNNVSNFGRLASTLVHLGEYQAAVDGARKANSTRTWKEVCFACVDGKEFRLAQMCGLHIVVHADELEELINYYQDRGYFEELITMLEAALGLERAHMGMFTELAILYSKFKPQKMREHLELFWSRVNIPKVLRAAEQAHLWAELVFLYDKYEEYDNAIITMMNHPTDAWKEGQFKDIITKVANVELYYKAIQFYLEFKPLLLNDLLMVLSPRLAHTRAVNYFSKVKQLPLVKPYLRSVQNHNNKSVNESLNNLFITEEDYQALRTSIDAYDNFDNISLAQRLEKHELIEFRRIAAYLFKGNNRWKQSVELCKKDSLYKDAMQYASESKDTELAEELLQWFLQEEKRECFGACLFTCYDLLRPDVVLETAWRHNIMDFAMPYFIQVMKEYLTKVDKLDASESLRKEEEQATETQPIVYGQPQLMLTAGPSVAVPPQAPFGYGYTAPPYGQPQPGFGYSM
UniProt P04897: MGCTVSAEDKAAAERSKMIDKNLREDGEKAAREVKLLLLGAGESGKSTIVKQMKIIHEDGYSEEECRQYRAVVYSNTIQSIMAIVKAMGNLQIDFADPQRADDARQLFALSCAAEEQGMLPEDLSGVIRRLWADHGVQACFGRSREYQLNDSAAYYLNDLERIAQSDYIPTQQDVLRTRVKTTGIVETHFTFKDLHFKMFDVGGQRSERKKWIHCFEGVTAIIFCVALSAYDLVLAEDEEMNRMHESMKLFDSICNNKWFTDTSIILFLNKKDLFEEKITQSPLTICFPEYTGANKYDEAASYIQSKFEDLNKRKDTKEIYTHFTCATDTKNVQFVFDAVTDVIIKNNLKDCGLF
UniProt Q9JMJ4: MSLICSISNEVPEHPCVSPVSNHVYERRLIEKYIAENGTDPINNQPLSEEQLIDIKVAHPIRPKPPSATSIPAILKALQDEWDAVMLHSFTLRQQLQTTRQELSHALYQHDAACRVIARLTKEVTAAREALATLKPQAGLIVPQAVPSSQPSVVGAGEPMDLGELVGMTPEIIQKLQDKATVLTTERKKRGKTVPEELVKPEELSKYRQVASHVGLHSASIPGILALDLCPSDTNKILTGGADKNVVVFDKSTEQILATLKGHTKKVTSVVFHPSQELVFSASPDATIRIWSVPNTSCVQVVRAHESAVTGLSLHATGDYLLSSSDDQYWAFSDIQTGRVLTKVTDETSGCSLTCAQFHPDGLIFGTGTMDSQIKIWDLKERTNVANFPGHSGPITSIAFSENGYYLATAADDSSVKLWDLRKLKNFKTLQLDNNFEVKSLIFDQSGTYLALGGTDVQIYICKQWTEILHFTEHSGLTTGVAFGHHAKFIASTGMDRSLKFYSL
UniProt P62716: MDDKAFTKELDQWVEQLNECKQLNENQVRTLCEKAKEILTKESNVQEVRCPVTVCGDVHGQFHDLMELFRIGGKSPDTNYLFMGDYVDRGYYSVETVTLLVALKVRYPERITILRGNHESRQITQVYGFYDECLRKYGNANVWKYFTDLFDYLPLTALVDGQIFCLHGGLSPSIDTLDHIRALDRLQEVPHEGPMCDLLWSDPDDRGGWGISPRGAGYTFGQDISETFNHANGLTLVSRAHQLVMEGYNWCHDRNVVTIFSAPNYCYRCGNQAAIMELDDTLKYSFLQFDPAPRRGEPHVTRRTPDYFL
UniProt P61765: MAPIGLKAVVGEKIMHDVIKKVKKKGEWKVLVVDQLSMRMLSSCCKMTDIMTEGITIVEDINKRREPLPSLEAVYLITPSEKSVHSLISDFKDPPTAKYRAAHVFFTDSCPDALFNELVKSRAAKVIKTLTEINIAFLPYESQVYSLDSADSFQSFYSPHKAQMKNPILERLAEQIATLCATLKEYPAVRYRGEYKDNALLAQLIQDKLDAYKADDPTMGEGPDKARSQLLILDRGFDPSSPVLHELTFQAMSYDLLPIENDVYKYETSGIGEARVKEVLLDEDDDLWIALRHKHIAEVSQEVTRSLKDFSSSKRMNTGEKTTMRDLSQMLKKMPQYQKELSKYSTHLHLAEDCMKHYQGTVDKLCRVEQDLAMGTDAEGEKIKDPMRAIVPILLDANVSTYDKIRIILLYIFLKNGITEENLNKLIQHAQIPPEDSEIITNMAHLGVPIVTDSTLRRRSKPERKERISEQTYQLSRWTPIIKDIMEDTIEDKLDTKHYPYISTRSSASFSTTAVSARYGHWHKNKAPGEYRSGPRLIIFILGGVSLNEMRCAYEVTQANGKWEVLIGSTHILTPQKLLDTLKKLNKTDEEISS
UniProt Q63610: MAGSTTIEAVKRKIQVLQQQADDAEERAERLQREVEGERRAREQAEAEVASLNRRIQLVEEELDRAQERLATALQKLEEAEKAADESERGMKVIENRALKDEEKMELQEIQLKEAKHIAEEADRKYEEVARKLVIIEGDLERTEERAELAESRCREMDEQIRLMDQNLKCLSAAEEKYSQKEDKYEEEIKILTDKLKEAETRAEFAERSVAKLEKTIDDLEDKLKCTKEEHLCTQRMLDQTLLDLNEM

T1: HB-GAM (heparin-binding growth-associated molecule; pleiotrophin) (rat) (UniProt P63090)
T1 sequence: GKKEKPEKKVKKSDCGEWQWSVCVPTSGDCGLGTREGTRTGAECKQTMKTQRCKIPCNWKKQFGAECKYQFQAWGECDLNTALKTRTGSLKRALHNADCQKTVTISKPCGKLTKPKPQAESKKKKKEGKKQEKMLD

B1: Glypican-2 (receptor, UniProt P51653 22-556)
chain: HGSEAKVVRSCAETRQVLGARGYSLNLIPPSLISGEHLQICPQEYTCCSSETEQKLIRDAEVTFRGLVEDSGSFLIHTLAARHRKFNEFFREMLSISQHSLAQLFSHSYGRLYSQHAVIFNSLFSGLRDYYEKSGEGLDDTLADFWAQLLERAFPLLHPQYSFPPDFLLCLTRLTSTADGSLQPFGDSPRRLRLQITRALVAARALVQGLETGRNVVSEALKVPMLEGCRQALMRLIGCPLCRGVPSLMPCRGFCLNVAHGCLSSRGLEPEWGGYLDGLLLLAEKLQGPFSFELAAESIGVKISEGLMHLQENSVKVSAKVFQECGTPHPVQSRNRRAPAPREETSRSWRSSAEEERPTTAAGTNLHRLVWELRERLSRVRGFWAGLPVTVCGDSRMAADLSQEAAPCWTGVGRGRYMSPVVVGSLNEQLHNPELDTSSPDVPTRRRRLHLRAATARMKAAALGQDLDMHDADEDASGSGGGQQYADDWKAGAAPVVPPARPPRPPRPPRRDGLGVRGGSGSARYNQGRSRNLGS
modifications: heparan sulfate chains; glycosylphosphatidylinositol (GPI) anchor
B2: 26S proteasome non-ATPase regulatory subunit 1 (protein, UniProt O88761 1-953)
chain: MITSAAGIISLLDEEEPQLKEFALHKLNAVVNDFWAEISESVDKIEVLYEDEGFRSRQFAALVASKVFYHLGAFEESLNYALGAGDLFNVNDNSEYVETIIAKCIDHYTKQCVENADLPEGEKKPIDQRLEGIVNKMFQRCLDDHKYKQAIGIALETRRLDVFEKTILESNDVPGMLAYSLKLCMSLMQNKQFRNKVLRVLVKIYMNLEKPDFINVCQCLIFLDDTQAVSDILEKLVKEDNLLMAYQICFDLYESASQQFLSSVIQNLRTVGTPIASVPGSTNTGTVPGPEKDSDSMETEEKTAGAVAGKTPDASPEPKDQTLKMIKILSGEMAIELHLQFLIRNNNTDLMILKNTKDAVRNSVCHTATVIANSFMHCGTTSDQFLRDNLEWLARATNWAKFTATASLGVIHKGHEKEALQLMATYLPKDTSPGSAYQEGGGLYALGLIHANHGGDIIDYLLNQLKNASNDIVRHGGSLGLGLAAMGTARQDVYDLLKTNLYQDDAVTGEAAGLALGLVMLGSKNTQAIEDMVGYAQETQHEKILRGLAVGIALVMYGRMEEADALIESLCRDKDPILRRSGMYTVAMAYCGSGNNKAIRRLLHVAVSDVNDDVRRAAVESLGFILFRTPEQCPSVVSLLSESYNPHVRYGAAMALGVCCAGTGNKEAINLLEPMTNDPVNYVRQGALIASALIMIQQTEITCPKVNQFRQLYSKVINDKHDDVMAKFGAILAQGILDAGGHNVTISLQSRTGHTHMPSVVGVLVFTQFWFWFPLSHFLSLAYTPTCIIGLNKDLKMPKVQYKSNCKPSTFAYPAPLEVPKEKEKEKVSTAVLSITAKAKKKEKEKEKKEEEKMEVDEAEKKEEKEKKKEPEPNFQLLDNPARVMPAQLKVLSMTETCRYQPFKPLSIGGIIILKDTSEDIEELVEPVAAHGPKIEEEEQEPEPPEPFEYIDD
B3: Proteasome subunit alpha type-3 (protein, UniProt P18422 1-255)
chain: MSSIGTGYDLSASTFSPDGRVFQVEYAMKAVENSSTAIGIRCKDGVVFGVEKLVLSKLYEEGSNKRLFNVDRHVGMAVAGLLADARSLADIAREEASNFRSNFGYNIPLKHLADRVAMYVHAYTLYSAVRPFGCSFMLGSYSVNDGAQLYMIDPSGVSYGYWGCAIGKARQAAKTEIEKLQMKEMTCRDVVKEVAKIIYIVHDEVKDKAFELELSWVGELTKGRHEIVPKDVREEAEKYAKESLKEEDESDDDNM
B4: Arginine–tRNA ligase cytoplasmic (enzyme, UniProt P40329 1-660)
chain: MDGLVAQCSARLLQQEKEIKSLTAEIDRLKNCSYLEASPSLEQLREENLKLKYRLNILRRSLQAERKRPTKNMININSRLQELFGCAIKAAYPDLENPPLVVTPSQQPKFGDYQCNSAMGISQMLKAKEQKVSPREIAENITKHLPNNEYIDRVEIAGPGFINVHLRKDFVSEQLTNLLVNGVQLPVLGENEKVIVDFSSPNIAKEMHVGHLRSTIIGESMSRLFEFAGYNVLRLNHVGDWGTQFGMLIAHLQDKFPDYLTVSPPIGDLQAFYKESKKRFDTEEEFKKRAYECVVLLQSKNPDIMKAWNLICDVSREEFNKIYDALDITLIERGESFYQDRMKDIVKEFEDKGFVQVDDGRKIVFVPGCSVPLTIVKSDGGYTYDTSDLAAIKQRLFEEKANKIIYVVDNGQATHFQTVFAAAQMIGWYDPKVTRVAHVGFGVVLGEDKKKFKTRSGETVRLMDLLEEGLRRSMDKLKEKERDKVLTEEELKAAQTSVAYGCIKYADLSHNRLNDYVFSFDKMLDDRGNTAAYLLYAFTRIRSIARLANIDEEMLQRAARETKIILDHEKEWKLGRCILRFPEILQKILDDLFLHTLCDYIYELATTFTEFYDSCYCVEKDRQTGKVLKVNMWRMLLCEAVAAVMAKGFDILGIKPVQRM
B5: Transketolase (protein, UniProt P50137 1-623)
chain: MEGYHKPDQQKLQALKDTANRLRISSIQATTAAGSGHPTSCCSAAEIMAVLFFHTMRYKALDPRNPHNDRFVLSKGHAAPILYAVWAEAGFLPEAELLNLRKISSDLDGHPVPKQAFTDVATGSLGQGLGAACGMAYTGKYFDKASYRVYCMLGDGEVSEGSVWEAMAFAGIYKLDNLVAIFDINRLGQSDPAPLQHQVDVYQKRCEAFGWHAIIVDGHSVEELCKAFGQAKHQPTAIIAKTFKGRGITGIEDKEAWHGKPLPKNMAEQIIQEIYSQVQSKKKILATPPQEDAPSVDIANIRMPTPPNYKVGDKIATRKAYGLALAKLGHASDRIIALDGDTKNSTFSELFKKEHPDRFIECYIAEQNMVSIAVGCATRDRTVPFCSTFAAFFTRAFDQIRMAAISESNINLCGSHCGVSIGEDGPSQMALEDLAMFRSVPMSTVFYPSDGVATEKAVELAANTKGICFIRTSRPENAIIYSNNEDFQVGQAKVVLKSKDDQVTVIGAGVTLHEALAAAEMLKKEKIGVRVLDPFTIKPLDKKLILDCARATKGRILTVEDHYYEGGIGEAVSAVVVGEPGVTVTRLAVSQVPRSGKPAELLKMFGIDKDAIVQAVKGLVTKG
B6: Ribose-phosphate pyrophosphokinase 2 (enzyme, UniProt P09330 1-318)
chain: MPNIVLFSGSSHQDLSQRVADRLGLELGKVVTKKFSNQETSVEIGESVRGEDVYIIQSGCGEINDNLMELLIMINACKIASSSRVTAVIPCFPYARQDKKDKSRAPISAKLVANMLSVAGADHIITMDLHASQIQGFFDIPVDNLYAEPAVLQWIRENITEWRNCIIVSPDAGGAKRVTSIADRLNVEFALIHKERKKANEVDRMVLVGDVKDRVAILVDDMADTCGTICHAADKLLSAGATKVYAILTHGIFSGPAISRINNAAFEAVVVTNTIPQEDKMKHCSKIQVIDISMILAEAIRRTHNGESVSYLFSHVPL

Target: T1, HB-GAM (heparin-binding growth-associated molecule; pleiotrophin) (rat)
Test: affinity purification with mass spectrometry; HB-GAM covalently bound to long-arm epoxy-activated magnetic beads (BSA beads as control), added to cultured hippocampal primary neurons, 2 h at 4 °C, then 30 min with 2 mM cross-linker DTSSP; lysis in RIPA with 50-100 mM n-dodecyl β-D-maltoside; bead-bound transmembrane fraction analysed by LC-MS; two independent samples; only the target purified

binding, binds:
26S proteasome non-ATPase regulatory subunit 2 (from UniProt Q4FZT9 1-908)
AP-2 complex subunit alpha-2 (from UniProt P18484 1-938)
Clathrin heavy chain 1 (from UniProt P11442 1-1675)
Guanine nucleotide-binding protein G(i) subunit alpha-2 (from UniProt P04897 1-355)
Pre-mRNA-processing factor 19 (from UniProt Q9JMJ4 1-504)
Serine/threonine-protein phosphatase 2A catalytic subunit beta isoform (from UniProt P62716 1-309) (enzyme)
Syntaxin-binding protein 1 (from UniProt P61765 1-594)
Tropomyosin alpha-3 chain (from UniProt Q63610 1-248)

Target: T1, HB-GAM (heparin-binding growth-associated molecule; pleiotrophin) (rat)
Test: as above
Remark: another data set of the same source

binding, binds:
B1
B2
B3
B4
B5
B6
